In publication doi:10.1101/2022.11.28.518166:
No constants are given. Whether binding was seen depends on the method and setting. For some of these results: In cells and extracts the contact can be indirect. Some entries that bind do so weakly or less than the wild type.

Chains of the proteins cited; added tags and fusions are not shown. Lines headed by an entry give the natural chain unless they say otherwise; changes in a name come on top. A line that says so, or that is headed by a name, gives the form on record, which may keep a tag or linker. Residues count along the entry.
UniProt Q15561: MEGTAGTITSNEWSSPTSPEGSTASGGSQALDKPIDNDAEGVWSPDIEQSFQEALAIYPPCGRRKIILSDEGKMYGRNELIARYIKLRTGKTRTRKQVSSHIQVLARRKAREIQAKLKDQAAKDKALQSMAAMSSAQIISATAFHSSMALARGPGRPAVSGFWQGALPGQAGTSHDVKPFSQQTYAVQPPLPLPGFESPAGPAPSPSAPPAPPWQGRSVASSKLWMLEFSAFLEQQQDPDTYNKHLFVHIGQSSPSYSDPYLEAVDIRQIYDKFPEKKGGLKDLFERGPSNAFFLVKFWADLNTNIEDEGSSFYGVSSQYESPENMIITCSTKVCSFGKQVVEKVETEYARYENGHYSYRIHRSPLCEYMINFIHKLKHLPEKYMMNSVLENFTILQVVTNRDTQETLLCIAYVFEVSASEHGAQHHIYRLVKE
TEAD4 YBD domain (217-434) with N-terminal SUMO and 6xHis tag: residues 217-434 of Q15561
UniProt P35240: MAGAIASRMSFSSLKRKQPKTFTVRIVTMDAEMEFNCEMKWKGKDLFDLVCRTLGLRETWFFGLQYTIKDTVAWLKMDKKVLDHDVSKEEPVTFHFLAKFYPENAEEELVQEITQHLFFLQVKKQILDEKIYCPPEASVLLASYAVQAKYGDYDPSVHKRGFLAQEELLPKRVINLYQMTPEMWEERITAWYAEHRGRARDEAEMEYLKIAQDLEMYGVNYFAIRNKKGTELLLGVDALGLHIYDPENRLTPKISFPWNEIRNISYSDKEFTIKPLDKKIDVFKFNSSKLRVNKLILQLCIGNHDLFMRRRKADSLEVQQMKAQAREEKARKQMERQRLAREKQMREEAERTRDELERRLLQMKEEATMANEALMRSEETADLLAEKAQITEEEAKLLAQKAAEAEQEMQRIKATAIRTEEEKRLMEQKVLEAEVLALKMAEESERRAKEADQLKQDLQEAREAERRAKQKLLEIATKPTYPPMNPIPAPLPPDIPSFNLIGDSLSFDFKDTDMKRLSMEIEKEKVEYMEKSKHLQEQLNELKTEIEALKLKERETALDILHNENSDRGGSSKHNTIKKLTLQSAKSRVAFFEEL
Myc-tagged NF2-4A-del (L297A/I301A/H304A/L582A and deletion of 590-595 aa) (P35240, form named): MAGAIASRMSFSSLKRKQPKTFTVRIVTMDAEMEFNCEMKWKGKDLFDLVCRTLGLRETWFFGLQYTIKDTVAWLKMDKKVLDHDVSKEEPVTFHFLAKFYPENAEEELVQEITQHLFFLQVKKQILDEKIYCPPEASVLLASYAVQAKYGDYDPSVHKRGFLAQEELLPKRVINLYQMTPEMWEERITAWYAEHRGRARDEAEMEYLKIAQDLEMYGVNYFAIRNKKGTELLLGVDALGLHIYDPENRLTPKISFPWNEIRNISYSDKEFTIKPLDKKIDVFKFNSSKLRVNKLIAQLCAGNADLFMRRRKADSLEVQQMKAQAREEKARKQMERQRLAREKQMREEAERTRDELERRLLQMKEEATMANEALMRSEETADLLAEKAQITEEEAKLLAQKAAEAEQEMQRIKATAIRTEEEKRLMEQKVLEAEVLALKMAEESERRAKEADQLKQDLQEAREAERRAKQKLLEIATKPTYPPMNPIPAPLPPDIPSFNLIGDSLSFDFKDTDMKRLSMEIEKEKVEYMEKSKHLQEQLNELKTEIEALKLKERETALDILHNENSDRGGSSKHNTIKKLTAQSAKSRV

Tests used:
[1] = target: Flag-tagged TEAD4 (human) (UniProt Q15561); assay: co-IP
[2] = target: TEAD4 YBD domain (217-434) with N-terminal SUMO and 6xHis tag (human) (UniProt Q15561); assay: pull-down

binding [1] | binding [2] | Substance
no binding | – | Myc-tagged NF2-4A-del (L297A/I301A/H304A/L582A and deletion of 590-595 aa) (from UniProt P35240 1-595)
– | binds | NF2 (competitor in the in vitro competitive binding assay) (from UniProt P35240 1-595)
binds | – | Myc-tagged NF2 WT (from UniProt P35240 1-595)
no binding | – | Myc-tagged NF2-5A (L297A/I301A/H304A/L582A/F591A) (from UniProt P35240 1-595)
